From PMC10868123
Results are given in words; binding and its absence hold for the method and conditions named. Binding seen in cells or lysates may run through a third protein. Some results given as binding are weak or reduced against the parent protein; the word gives no strength.

Protein sequences, listed by entry. Tags and fused reporters are not part of them. Lines headed by an entry give the natural chain unless they say otherwise; changes in a name come on top.
UniProt P61026: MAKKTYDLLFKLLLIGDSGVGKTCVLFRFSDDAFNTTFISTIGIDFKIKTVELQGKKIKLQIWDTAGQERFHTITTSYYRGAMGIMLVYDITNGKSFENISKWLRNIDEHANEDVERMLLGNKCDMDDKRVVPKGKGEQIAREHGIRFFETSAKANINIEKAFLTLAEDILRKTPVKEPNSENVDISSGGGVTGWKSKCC
UniProt Q709C8: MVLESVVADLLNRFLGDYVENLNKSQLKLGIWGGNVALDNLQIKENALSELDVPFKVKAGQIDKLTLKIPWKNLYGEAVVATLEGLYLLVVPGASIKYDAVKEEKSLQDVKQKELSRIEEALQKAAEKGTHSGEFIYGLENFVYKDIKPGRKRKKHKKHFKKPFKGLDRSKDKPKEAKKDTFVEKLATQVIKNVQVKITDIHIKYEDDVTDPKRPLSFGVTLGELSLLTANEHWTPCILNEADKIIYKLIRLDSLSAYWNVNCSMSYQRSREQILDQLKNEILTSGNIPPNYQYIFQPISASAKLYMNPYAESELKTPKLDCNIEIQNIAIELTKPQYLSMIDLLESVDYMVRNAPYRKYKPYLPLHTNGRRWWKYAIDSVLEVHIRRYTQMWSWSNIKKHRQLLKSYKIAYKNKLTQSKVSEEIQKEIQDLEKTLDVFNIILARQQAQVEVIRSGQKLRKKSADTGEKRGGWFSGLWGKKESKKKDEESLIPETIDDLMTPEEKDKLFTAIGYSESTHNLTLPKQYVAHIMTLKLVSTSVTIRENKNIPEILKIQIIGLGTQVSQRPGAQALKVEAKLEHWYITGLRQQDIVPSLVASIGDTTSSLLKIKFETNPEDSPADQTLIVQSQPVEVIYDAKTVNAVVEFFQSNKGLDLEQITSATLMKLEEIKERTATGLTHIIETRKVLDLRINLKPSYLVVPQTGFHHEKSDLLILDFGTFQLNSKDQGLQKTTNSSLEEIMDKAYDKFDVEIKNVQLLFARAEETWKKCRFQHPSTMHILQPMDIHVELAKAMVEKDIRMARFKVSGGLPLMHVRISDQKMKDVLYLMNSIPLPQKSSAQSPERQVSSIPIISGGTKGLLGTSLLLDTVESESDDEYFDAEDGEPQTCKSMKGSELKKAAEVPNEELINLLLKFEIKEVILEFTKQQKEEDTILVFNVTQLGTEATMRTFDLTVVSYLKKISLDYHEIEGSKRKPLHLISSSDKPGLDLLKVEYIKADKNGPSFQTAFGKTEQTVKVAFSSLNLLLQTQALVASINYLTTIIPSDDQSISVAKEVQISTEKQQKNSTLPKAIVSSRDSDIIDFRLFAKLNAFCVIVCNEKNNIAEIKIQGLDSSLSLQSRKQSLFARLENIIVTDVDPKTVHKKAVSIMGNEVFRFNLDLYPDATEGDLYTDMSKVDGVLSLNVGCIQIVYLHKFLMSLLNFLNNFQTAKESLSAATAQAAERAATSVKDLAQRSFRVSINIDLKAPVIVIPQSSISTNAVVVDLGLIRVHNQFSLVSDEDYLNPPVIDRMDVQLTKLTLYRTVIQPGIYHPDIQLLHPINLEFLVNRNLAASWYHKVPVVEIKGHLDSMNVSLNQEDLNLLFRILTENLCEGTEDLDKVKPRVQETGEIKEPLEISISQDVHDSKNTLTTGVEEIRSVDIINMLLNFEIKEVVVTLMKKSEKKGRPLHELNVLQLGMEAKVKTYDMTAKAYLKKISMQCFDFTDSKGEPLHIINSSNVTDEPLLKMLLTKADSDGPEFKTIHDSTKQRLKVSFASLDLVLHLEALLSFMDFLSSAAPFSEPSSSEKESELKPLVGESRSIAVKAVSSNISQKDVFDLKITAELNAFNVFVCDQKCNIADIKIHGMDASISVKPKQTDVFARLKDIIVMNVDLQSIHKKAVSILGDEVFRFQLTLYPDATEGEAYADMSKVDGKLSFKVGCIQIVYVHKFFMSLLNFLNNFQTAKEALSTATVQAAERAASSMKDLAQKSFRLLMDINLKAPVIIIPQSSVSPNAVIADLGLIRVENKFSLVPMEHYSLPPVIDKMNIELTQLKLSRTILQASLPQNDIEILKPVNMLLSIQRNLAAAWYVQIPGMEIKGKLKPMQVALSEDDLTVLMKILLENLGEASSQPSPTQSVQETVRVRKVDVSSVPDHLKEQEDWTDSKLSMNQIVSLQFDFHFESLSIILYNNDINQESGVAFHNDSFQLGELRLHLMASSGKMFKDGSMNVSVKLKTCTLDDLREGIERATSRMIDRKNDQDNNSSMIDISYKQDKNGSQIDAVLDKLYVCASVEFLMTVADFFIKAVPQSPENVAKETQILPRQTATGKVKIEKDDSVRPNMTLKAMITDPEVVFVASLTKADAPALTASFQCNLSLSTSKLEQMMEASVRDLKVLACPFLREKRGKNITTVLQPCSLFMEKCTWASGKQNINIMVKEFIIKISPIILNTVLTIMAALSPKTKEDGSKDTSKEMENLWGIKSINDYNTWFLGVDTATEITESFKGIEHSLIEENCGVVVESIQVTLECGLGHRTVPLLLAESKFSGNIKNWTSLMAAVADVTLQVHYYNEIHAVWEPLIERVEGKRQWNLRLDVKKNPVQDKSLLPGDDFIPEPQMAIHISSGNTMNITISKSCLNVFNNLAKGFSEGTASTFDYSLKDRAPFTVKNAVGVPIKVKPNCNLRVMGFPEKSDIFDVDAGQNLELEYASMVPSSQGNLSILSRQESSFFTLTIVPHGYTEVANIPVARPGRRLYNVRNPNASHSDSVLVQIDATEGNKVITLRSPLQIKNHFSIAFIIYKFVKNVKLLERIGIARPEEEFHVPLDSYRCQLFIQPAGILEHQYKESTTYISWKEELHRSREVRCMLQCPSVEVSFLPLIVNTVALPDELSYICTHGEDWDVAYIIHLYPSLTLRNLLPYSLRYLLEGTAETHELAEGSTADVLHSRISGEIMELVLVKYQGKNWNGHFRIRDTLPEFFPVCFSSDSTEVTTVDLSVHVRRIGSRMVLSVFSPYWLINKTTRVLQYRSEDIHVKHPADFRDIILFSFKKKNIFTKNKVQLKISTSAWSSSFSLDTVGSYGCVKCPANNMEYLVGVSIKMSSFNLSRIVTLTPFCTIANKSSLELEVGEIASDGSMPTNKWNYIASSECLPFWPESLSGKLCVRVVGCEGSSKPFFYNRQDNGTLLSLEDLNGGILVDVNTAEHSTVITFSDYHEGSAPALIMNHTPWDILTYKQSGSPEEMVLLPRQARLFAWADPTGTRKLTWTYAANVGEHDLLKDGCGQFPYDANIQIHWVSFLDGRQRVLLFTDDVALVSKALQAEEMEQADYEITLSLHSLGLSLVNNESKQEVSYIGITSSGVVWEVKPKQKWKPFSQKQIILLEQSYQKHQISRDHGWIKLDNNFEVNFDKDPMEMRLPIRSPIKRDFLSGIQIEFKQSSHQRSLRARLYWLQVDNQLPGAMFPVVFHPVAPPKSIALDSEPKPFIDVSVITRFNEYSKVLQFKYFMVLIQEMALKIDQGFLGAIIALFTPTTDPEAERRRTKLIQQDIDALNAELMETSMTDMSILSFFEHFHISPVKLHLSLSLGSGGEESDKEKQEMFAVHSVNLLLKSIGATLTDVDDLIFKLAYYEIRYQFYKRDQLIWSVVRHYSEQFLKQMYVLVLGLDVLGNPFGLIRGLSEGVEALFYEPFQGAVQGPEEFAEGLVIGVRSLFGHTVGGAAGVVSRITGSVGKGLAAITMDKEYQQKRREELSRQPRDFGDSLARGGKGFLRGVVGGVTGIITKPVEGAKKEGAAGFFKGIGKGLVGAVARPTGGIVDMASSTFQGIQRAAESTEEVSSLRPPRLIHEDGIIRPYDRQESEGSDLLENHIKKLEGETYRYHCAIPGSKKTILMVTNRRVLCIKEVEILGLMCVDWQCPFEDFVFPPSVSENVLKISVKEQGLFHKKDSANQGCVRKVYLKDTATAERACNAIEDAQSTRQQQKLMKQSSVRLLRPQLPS

Tests used:
eGFP-Rab10 WT = eGFP-Rab10 WT (UniProt P61026); assay: co-IP; GFP-Rab10 (WT, T73E, T73A) precipitated with GFP-Trap agarose for 2 h at 4°C from lysate of transfected HEK-293 FT cells; AP-MS buffer (10 mM Tris/Cl pH 7.5, 150 mM NaCl, 10% glycerol, 0.5 mM EDTA, 0.5% Nonidet P40); immunoblot for VPS13C-Myc or endogenous VPS13C; also after treatment of the cells with MLi-2 (200 nM, 16 h and a further 2 h)
[1] = biological target: phosphomimetic GFP-Rab10 T73E (UniProt P61026); assay: as above
[2] = biological target: Rab10, endogenous in HEK-293 FT cells (human (endogenous in HEK-293 FT)) (UniProt P61026); assay: proximity ligation; endogenous VPS13C and Rab10 in fixed, permeabilised HEK-293 FT cells (control or VPS13C knockdown; DMSO or 200 nM MLi-2); Duolink In Situ Red kit with rabbit anti-VPS13C and mouse anti-Rab10
[3] = biological target: Rab10, endogenous in hiPSC-derived dopaminergic neurons (human (endogenous in hiPSC-derived dopaminergic neurons)) (UniProt P61026); assay: proximity ligation; endogenous VPS13C and Rab10 in fixed, permeabilised hiPSC-derived dopaminergic neurons (control or VPS13C knockdown); Duolink In Situ Red kit with rabbit anti-VPS13C and mouse anti-Rab10
VPS13C-Myc-His = VPS13C-Myc-His (UniProt Q709C8); assay: co-IP; VPS13C-Myc precipitated with magnetic c-Myc beads overnight at 4°C from lysate of transfected HEK-293 FT cells; AP-MS buffer (10 mM Tris/Cl pH 7.5, 150 mM NaCl, 10% glycerol, 0.5 mM EDTA, 0.5% Nonidet P40); immunoblot for GFP

## VPS13C, endogenous in HEK-293 cells (from UniProt Q709C8 1-3753)
eGFP-Rab10 WT
  binding: binds
[1]
  binding: binds
[2]
  binding: binds

## VPS13C, endogenous in hiPSC-derived dopaminergic neurons (from UniProt Q709C8 1-3753)
[3]
  binding: binds

## VPS13C-Myc-His (from UniProt Q709C8 1-3753)
eGFP-Rab10 WT
  binding: binds

## eGFP-Rab10 WT (from UniProt P61026 1-200)
VPS13C-Myc-His
  binding: binds
